From US20100120894A1
No constants are given. Whether binding was seen depends on the method and setting. For some of these results: Binding seen in cells or lysates may run through a third protein. Some results given as binding are weak or reduced against the parent protein; the word gives no strength. Where a sequence is shown, tags or fusion partners need not be part of it.

Chains of the proteins cited; added tags and fusions are not shown.
UniProt Q9ULZ3: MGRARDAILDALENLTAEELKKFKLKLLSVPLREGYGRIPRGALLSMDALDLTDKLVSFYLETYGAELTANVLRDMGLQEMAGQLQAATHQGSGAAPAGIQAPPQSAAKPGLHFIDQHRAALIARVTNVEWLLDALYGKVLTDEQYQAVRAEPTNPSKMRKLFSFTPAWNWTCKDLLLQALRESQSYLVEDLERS

Legend:
[1] = molecular target: ASC-YFP stably expressed in HEK293 cells (UniProt Q9ULZ3); test: confocal microscopy, co-aggregation in HEK293-ASC-YFP cells
[2] = molecular target: HA-tagged ASC (human) (UniProt Q9ULZ3); test: epifluorescence microscopy, cluster formation of PYD-CFP in 293T cells with increasing ASC-HA
[3] = molecular target: HA-tagged ASC (human) (UniProt Q9ULZ3); test: co-immunoprecipitation with anti-HA beads from 293T cells, immunoblot with anti-CFP
[4] = molecular target: ASC-YFP stably expressed in HEK293 cells (UniProt Q9ULZ3); test: figure title: confocal co-localisation with ASC-YFP and co-immunoprecipitation

Measured: binding

B1: AIM2-PYD (1-83) C-terminally tagged with CFP (protein, human, UniProt O14862 1-83, looked up, not shown: large carriers)
chain: MESKYKEILLLTGLDNITDEELDRFKFFLSDEFNIATGKLHTANRIQVATLMIQNAGAVSAVMKTIRIFQKLNYMLLAKRLQE
binds: all assays above
